## Assay results

The results are deposited in PubChem (AID977624; Broad Institute, 2014).

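Wild-type E. coli carrying GFP, grown in the same well as an h34 humanized-ribosome RFP strain; GFP fluorescence for growth, read after 24 h. The value is the change in activity at the highest dose tested; more negative means stronger inhibition. Active requires GFP to fall at least twice as much as RFP with growth loss below a set limit; inconclusive means no clear call; everything else is inactive.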

These entries are mostly ones the record files as inconclusive; other results of the assay are not listed here.

With COCCN(C(=O)c1ccccc1F)c1nnc(-c2ccc(OC)cc2)s1 [at 50 µM (top of the series)] the assay gave activity change 7.868 (inconclusive). Result for Cc1cc(CNC(=O)c2cc(-c3ccccc3)nc3ccccc23)nn1C [at 50 µM (top of the series)] was activity change 0.628 (inconclusive). Fc1ccc(-c2nc3c(Cl)cc(C(F)(F)F)cn3c2Cc2ccsc2)cc1 [at 50 µM (top of the series)] gave activity change 29.78 (inconclusive). With COc1ccc(Oc2ccc(C(F)(F)F)cc2NC(=O)CC(CC(=O)O)c2ccccc2)cc1 (stereo not drawn) [at 50 µM (top of the series)] the assay gave activity change -2.03 (inconclusive). With Cc1cc(Br)c2nc(-c3ccc(Cl)cc3)c(Cc3cccc(Cl)c3)n2c1 [at 50 µM (top of the series)] the assay gave activity change 21.56 (inconclusive). C=CCN(C(=O)c1csnn1)C(C(=O)NC1CCCC1)c1c(F)cccc1Cl (stereo not drawn) [at 50 µM (top of the series)] read activity change -40.87 (inconclusive).

CN(C)S(=O)(=O)N1CCN(c2ccccc2Cl)CC1 [at 50 µM (top of the series)] read activity change -1.641 (inconclusive). For Cc1ccc([N+](=O)[O-])c(OCCn2cnc3ccccc32)c1 [at 50 µM (top of the series)] the result was activity change 9.861 (inactive). Result for Cc1ccc2sc(N(CCCN(C)C)C(=O)c3ccc(S(=O)(=O)N4CCc5ccccc5C4)cc3)nc2c1C [at 50 µM (top of the series)] was activity change 10.03 (inconclusive). With COC(=O)c1ccc(OCC(=O)c2ccccc2OC)cc1 [at 50 µM (top of the series)] the assay gave activity change 21.25 (inconclusive). CCOCCCNC(=O)C(NC(=O)c1ccccc1O)c1ccc(C)cc1 (stereo not drawn) [at 50 µM (top of the series)] read activity change 18.46 (inconclusive). O=C(O)CC(CC(=O)Nc1ccc2ccccc2n1)c1ccccc1 (stereo not drawn) [at 50 µM (top of the series)] gave activity change 7.989 (inconclusive).

COc1cccc(NC2=Nc3cccc4cccc2c34)c1 [at 50 µM (top of the series)] gave activity change 2.914 (inconclusive). Result for Cc1ccc(NC(=O)c2ccc3ncsc3c2)cc1S(=O)(=O)N(C)C [at 50 µM (top of the series)] was activity change -18.49 (inconclusive). Result for Clc1ccccc1C1CC(c2ccccc2)=Nc2ccccc2N1 (stereo not drawn) [at 50 µM (top of the series)] was activity change 16.59 (inconclusive). Result for O=C(COC(=O)C1CC2C=CC1C2)Nc1ccc([N+](=O)[O-])cc1 (stereo not drawn) [at 50 µM (top of the series)] was activity change 1.852 (inactive). Result for CC(NC(=O)c1ccncc1)c1ccc(Cl)cc1Cl (stereo not drawn) [at 50 µM (top of the series)] was activity change 7.495 (inconclusive). COc1ccc(S(=O)(=O)n2cccc2)cc1 [at 50 µM (top of the series)] read activity change 49.27 (inconclusive).

Cc1ccc(Oc2ccc(S(=O)(=O)N3CCOCC3)cc2C(N)=O)cc1C [at 50 µM (top of the series)] read activity change -8.263 (inactive). Result for COc1ccc(C#Cc2ccc([C@@H]3[C@@H](CO)N4CCCCN(C(=O)Nc5ccc(F)cc5)C[C@H]34)cc2)cc1 [at 50 µM (top of the series)] was activity change 6.351 (inactive). COC(=O)CNC(=O)COC(=O)c1ccc(Cl)nc1 [at 50 µM (top of the series)] read activity change 38.71 (inconclusive). For Cc1cc(C)cc(NC(=O)COC(=O)CC2CCCC2)c1 [at 50 µM (top of the series)] the result was activity change 18.65 (inconclusive). For COc1ccc(-c2nn(-c3ccccc3C)cc2CNCc2cccnc2)cc1F [at 50 µM (top of the series)] the result was activity change 12.48 (inconclusive). Result for COc1ccc(-n2c(-c3ccc(C)cc3)nc3ccccc3c2=O)cc1 [at 50 µM (top of the series)] was activity change -11.34 (inactive).

With Cc1cc(Br)ccc1NC(=O)c1ccco1 [at 50 µM (top of the series)] the assay gave activity change 8.892 (inconclusive). CC(CCc1ccccc1)NC(=O)CNC(=O)COc1ccccc1 (stereo not drawn) [at 50 µM (top of the series)] read activity change 35.7 (inconclusive). Clc1cccc(OCc2nc(-c3ccncc3)n[nH]2)c1 [at 50 µM (top of the series)] gave activity change 16.9 (inconclusive). With CCOC(=O)C12C(=O)OCC1C2c1ccccc1 (stereo not drawn) [at 50 µM (top of the series)] the assay gave activity change 48.03 (inconclusive). Cc1c(-c2cccc(Cl)c2)nc2ccccc2c1C(=O)N1CCC2(CC1)OCCO2 [at 50 µM (top of the series)] gave activity change 28.18 (inconclusive). Result for Cc1ccc(NC(=O)c2ccc(Br)o2)cc1S(=O)(=O)N(C)C [at 50 µM (top of the series)] was activity change 16.76 (inconclusive).